# Experimental data from US20180200308A1, “METHODS OF TREATING COLITIS” (priority 2015, published 2018).
# At least one compound was matched to its structure with a doubt left.
# Experiments:
# [1] = test system: TNBS-induced colitis; experiment: TNBS model of colitis with and without broad-spectrum antibiotic pretreatment (Example 4); assay type: in vivo, Balb/c mice; details: vs Negative Control
# [2] = test system: DSS-induced colitis; experiment: DSS model of colitis with or without broad-spectrum antibiotic pretreatment (Example 2); assay type: in vivo, C57B1/6 mice; details: vs Negative Control (PBS, no antibiotic pretreatment)
compound,measurement,setting,value
CCCC1O[C@@H]2C[C@H]3[C@@H]4CCC5=CC(=O)C=C[C@]5(C)[C@H]4[C@@H](O)C[C@]3(C)[C@]2(C(=O)CO)O1 (stereo partly drawn) [Budesonide],protection from TNBS-induced disease (any of the parameters examined),[1],did not significantly protect
same,clinical score,[2],"small, but significant improvement"
same,"disease parameters (body weight loss, clinical and gross pathology scores, colon length)",[2]; 2% DSS Days 31-35,No statistically significant changes
